These are yes or no findings as the source states them, for the method shown. Binding seen in cells or lysates may run through a third protein. Some entries that bind do so weakly or less than the wild type. Sequences can lack the tags named with a protein.
T1: HA-tagged Pyk1 (HA-Pyk1) (S. cerevisiae, UniProt P00549 1-500)
T1 construct: Pyk1 (Cdc19), pyruvate kinase of S. cerevisiae; also called pRS313-HA-PYK1; source: S. cerevisiae (pyk1∆ tsa1/2∆ or pyk1∆ cells) carrying pRS313-HA-PYK1, in lysate (whole cell extract)
T1 sequence (looked up): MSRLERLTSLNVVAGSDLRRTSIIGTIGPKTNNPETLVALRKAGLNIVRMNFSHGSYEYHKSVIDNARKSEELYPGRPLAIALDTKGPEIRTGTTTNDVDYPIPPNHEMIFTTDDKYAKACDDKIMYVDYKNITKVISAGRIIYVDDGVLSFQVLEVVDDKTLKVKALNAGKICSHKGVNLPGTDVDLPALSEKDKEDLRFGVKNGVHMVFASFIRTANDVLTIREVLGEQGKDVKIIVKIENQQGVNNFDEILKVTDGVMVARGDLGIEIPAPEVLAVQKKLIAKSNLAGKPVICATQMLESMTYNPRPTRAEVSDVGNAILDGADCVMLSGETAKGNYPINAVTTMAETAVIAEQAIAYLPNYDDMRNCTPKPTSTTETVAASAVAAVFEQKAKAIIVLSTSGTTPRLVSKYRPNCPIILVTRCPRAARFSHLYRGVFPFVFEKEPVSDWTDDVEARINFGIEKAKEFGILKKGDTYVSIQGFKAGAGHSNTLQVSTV

B1: Tsa1∆C (hyperoxidation-resistant mutant of Tsa1) (domain or fragment, UniProt P34760 1-179)
chain: MVAQVQKQAPTFKKTAVVDGVFDEVSLDKYKGKYVVLAFIPLAFTFVCPTEIIAFSEAAKKFEEQGAQVLFASTDSEYSLLAWTNIPRKEGGLGPINIPLLADTNHSLSRDYGVLIEEEGVALRGLFIIDPKGVIRHITINDLPVGRNVDEALRLVEAFQWTDKNGTVLPCNWTPGAAT
B2: Tsa1^C171T (enzyme, S. cerevisiae, UniProt P34760 1-196, looked up)
chain: MVAQVQKQAPTFKKTAVVDGVFDEVSLDKYKGKYVVLAFIPLAFTFVCPTEIIAFSEAAKKFEEQGAQVLFASTDSEYSLLAWTNIPRKEGGLGPINIPLLADTNHSLSRDYGVLIEEEGVALRGLFIIDPKGVIRHITINDLPVGRNVDEALRLVEAFQWTDKNGTVLPTNWTPGAATIKPTVEDSKEYFEAANK
notes: Tsa1 of S. cerevisiae with the resolving cysteine Cys171 mutated to Thr; source: S. cerevisiae tsa1/2Δ cells carrying an expression vector (pRS315), in lysate

Molecular target: T1, HA-tagged Pyk1 (HA-Pyk1)
Assay: co-IP; HA-Pyk1 precipitated with anti-HA antibody beads from yeast whole cell extract (400 μg; IP buffer: 100 mM MES pH 7.0, 200 mM KCl, 15 mM MgCl2, 5% glycerol, 0.15% NP-40, 50 mM NEM; 4 °C, 3 h); immunoblot with anti-Tsa1, anti-Pyk1 and anti-Prx-SO2/SO3; cells from glucose (SDM) or ethanol (SEM -Trp) medium, exponential, diauxic shift or early stationary phase, with or without 1, 3 or 10 mM H2O2

Binder	binding
B1	binds
B2	binds

— paper PMC5025857, “Redox-dependent Regulation of Gluconeogenesis by a Novel Mechanism Mediated by a Peroxidatic Cysteine of Peroxiredoxin” (Scientific Reports, 2016)
